Strings that start with PEPTIDE1 are HELM notation: dots part the residues, brackets hold end groups and non-standard residues. * marks the point of attachment. Tfa = O=C(C(F)(F)F)*

The data set in a line: general procedure: Fmoc solid-phase peptide synthesis; TentaGel S RAM, TentaGel S RAM-Lys(Boc)Fmoc (0.22-0.31 mmol/g); preformed Fmoc-protected HObt esters (3 eq.).
The mark [1] stands for this setting: whole synthesis, scale of the general procedure 1 g resin, 0.23-0.24 mmol/g, trifluoroacetate salt.

In the case of “Ac-Arg-Tyr-Tyr-Arg-Trp-Lys-Lys-Lys-Lys-Lys-Lys-Lys-NH2 (SEQ ID NO: 35)×9 HCl (chloride salt)”, under “purification step, chloride salt”, the “final HPLC purity” value was found to be 97%.
With “Ac-D-Arg-D-Tyr-D-Tyr-D-Arg-D-Trp-D-Lys-D-Lys-D-Lys-D-Lys-D-Lys-D-Lys-D-Lys-NH2”, the “final HPLC purity” value under setting [1] is “better than 97%”.
On the same count and under the same terms, in the case of Ac-KKKKKKKWRYYN-NH2 it was “better than 99%”; in that of Ac-KKKKKKKWRYYR-NH2, “better than 98%”.
With Ac-KKKKKKRYYRWK-NH2, the “final HPLC purity” value under setting [1] is given as “better than 93%”.
The same measure, in the same setting: then Ac-KYYRWKKKKKKK-NH2, with “better than 96%”; and Ac-RYNRWKKKKKKK-NH2, with “better than 98%”.
The same measure, in the same setting: in the case of Ac-RYYRIKKKKKKK-NH2 it was “better than 97%”.
Still for that read-out and setting: then Ac-RYYRWK-NH2, with “better than 97%”.
Ac-RYYRWKAKKKKK-NH2: the “final HPLC purity” value under setting [1] is listed as “better than 96%”.
Still for that read-out and setting: then Ac-RYYRWKC-NH2, with “better than 94%”; and Ac-RYYRWKKKKKK-NH2, with “better than 98%”.
On to Ac-RYYRWKKKKKKK-NH2, for which the “final HPLC purity” value reads like this: (purification step, acetate salt) 98%; under setting [1], “better than 95%”.
Regarding Ac-RYYRWKKKKKKKC-NH2, the “final HPLC purity” value under setting [1] is “better than 91%”.
Same read-out and setting: then H-CAPPSKKKKKK-NH2, with “better than 98%”.
The same measure, in the same setting: then H-CKKKKKK-NH2, with “better than 90%”; and H-NEEEEERYYRWKKKKKKK-NH2, with “better than 98%”.
Turning to “PEPTIDE1{[ac].[dK].[dK].[dK].[dK].[dK].[dK].[dK].[dW].[dR].[dY].[dY].[dR].[am]}$$$$V2.0”, under setting [1], the “final HPLC purity” value is on record as “better than 98%”.
Same read-out and setting: then Tfa-RYYRWKKKKKKK-NH2, with “better than 96%”.
